Measured values taken from publication PMC4410182 (Nature communications, 2015).

Target: T1, A. borkumensis YdaH (Alcanivorax borkumensis, UniProt Q0VR69)
T1 sequence (Q0VR69 1-492): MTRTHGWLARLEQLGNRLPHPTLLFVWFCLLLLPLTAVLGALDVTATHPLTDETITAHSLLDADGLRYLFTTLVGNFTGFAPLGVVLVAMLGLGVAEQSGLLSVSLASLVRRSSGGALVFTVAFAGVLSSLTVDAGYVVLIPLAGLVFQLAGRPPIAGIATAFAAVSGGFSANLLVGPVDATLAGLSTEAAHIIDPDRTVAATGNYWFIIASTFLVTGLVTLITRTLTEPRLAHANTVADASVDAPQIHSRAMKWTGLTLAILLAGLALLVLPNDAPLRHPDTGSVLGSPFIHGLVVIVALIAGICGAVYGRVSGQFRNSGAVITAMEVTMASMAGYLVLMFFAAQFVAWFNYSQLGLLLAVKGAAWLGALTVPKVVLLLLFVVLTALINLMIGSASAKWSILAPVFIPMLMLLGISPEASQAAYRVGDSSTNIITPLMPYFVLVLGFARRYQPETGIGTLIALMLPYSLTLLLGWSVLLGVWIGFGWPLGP
Assay: isothermal titration calorimetry
Format: binding

- Kd: 4.97 ± 0.26 µM
SMILES: Nc1ccc(S(N)(=O)=O)cc1 [sulfanilamide]
